Data: patent US20070128661A1 (Harvard, published 2007)

Biological target: T1, T-bet (UniProt Q9JKD8)
T1 sequence (limits assumed): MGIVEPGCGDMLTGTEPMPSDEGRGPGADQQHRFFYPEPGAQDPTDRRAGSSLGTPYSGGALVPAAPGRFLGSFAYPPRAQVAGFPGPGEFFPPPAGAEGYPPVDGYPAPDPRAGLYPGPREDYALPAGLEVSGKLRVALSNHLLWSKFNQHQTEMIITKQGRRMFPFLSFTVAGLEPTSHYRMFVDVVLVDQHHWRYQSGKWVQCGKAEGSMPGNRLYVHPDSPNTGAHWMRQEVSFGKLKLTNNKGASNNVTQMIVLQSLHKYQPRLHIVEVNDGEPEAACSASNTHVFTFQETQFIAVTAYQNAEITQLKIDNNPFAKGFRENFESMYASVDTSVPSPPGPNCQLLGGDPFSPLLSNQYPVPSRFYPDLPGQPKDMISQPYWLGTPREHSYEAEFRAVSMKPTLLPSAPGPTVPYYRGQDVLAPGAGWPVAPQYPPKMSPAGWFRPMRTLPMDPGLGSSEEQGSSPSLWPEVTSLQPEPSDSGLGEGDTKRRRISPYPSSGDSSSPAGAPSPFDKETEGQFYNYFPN
Experiment: pull-down
Settings: protein in a lysate after overexpression, label: 5' biotin

Sequence | binding result (T-box mutated, HKMG buffer, variant of IL-2 promoter wt T-box site) | binding result (HKMG buffer: 10 mM Hepes pH 7.9, 100 mM KCl, 5 mM MgCl2)
ATTAAAACTGCTCTCTAACTAAGGGCTAACCCG (double strand) [IL-2 promoter mt T-box site] | no binding | –
ATTAAAACTGCCACCTAAGTGTGGGCTAACCCG (double strand) [IL-2 promoter wt T-box site] | – | binds

Where cells or extracts were used, other partners may take part. A negative result means that nothing was seen under these conditions. Tags and fusion partners may be left off the protein sequences shown.
